Data from PubChem BioAssay AID342 (DTP/NCI, 2004).
The list shows only some results of the screen, not a fair sample: it is rich in T/C values a quarter to a half above the control, in often repeated tests (any T/C) and in doses without a T/C. Further doses and runs are listed elsewhere. T/C gives the treated animals as a percentage of the vehicle group. Schedules are NCI's codes, taken here to give the interval after Q, in days (D) or hours (H), and the number of doses after X. Some T/C values are followed by the survivors on the day toxicity was checked, most often the fifth; where none is given, no animal had died by that day. Some entries were tested several times; their values stand side by side, smallest first. Some schedules carry Z or #; the key to these is not given. Some entries give survivors of the animals treated and no T/C: the source files T/C as zero there, which appears to mark a toxic dose or a test without result, not a measured value. Counts of survivors are from the toxicity check (mostly the fifth day) where no day follows; animals may have died later.

System: Swiss mice, Sarcoma 180 sc, mean tumor weight T/C
Assay: NCI In Vivo Anticancer Drug Screen. Data for tumor model Sarcoma 180 (subcutaneous) in Swiss mice
Conditions: T/C endpoint: mean tumor weight, higher T/C = larger tumour; for T/C: evaluated on day 8
Outline: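 Tumor-bearing mice, transplantable tumor; readout survival or tumor size; result = T/C, treated vs vehicle control.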

[1] = dose: 6.2 mg/kg/injection, schedule: Q01DX007 (ip), vehicle: saline
[2] = dose: 25.0 mg/kg/injection, schedule: Q01DX007 (ip), vehicle: saline
[3] = dose: 50.0 mg/kg/injection, schedule: Q01DX007 (ip), vehicle: saline
[4] = dose: 300.0 mg/kg/injection, schedule: Q01DX007 (ip), vehicle: carboxymethylcellulose (CMC)
[5] = dose: 500.0 mg/kg/injection, schedule: Q01DX007 (ip), vehicle: other
[6] = dose: 750.0 mg/kg/injection, schedule: Q01DX007 (ip), vehicle: carboxymethylcellulose (CMC)
[7] = dose: 500.0 mg/kg/injection, schedule: Q01DX007 (ip), vehicle: saline
[8] = dose: 500.0 mg/kg/injection, schedule: Q01DX007 (ip), vehicle: carboxymethylcellulose (CMC)
[9] = dose: 125.0 mg/kg/injection, schedule: Q01DX007 (ip), vehicle: carboxymethylcellulose (CMC)
[10] = dose: 75.0 mg/kg/injection, schedule: Q#A X014 (ip), vehicle: methylcellulose (MC)

Q: Which T/C [1] does the source give for `NCC(O)c1ccc(O)c(O)c1` (configuration not stated) here?
A: 135 % of control [5 of 6 alive]

Q: What about the survivor count [1] of the same molecule?
A: 0 of 6

Q: What about the survivor count [2] of the same molecule?
A: 1 of 6

Q: What about the survivor count [3] of the same molecule?
A: 1 of 6

Q: For `COC1=C(N)C(=O)c2nc(-c3nc(C(=O)O)c(C)c(-c4ccc(OC)c(OC)c4O)c3N)ccc2C1=O`, which survivor count (dose: 0.4 mg/kg/injection, schedule: Q#A X014 (ip), vehicle: alkali diluted with CMC) is on record?
A: 3 of 6

Q: Which survivor count [4] does the source give for `CC(C)(c1ccccc1)c1ccc(O)cc1` here?
A: 0 of 7

Q: How did the T/C (dose: 500.0 mg/kg/injection, schedule: Q#A X014 (ip), vehicle: water) turn out when `CN(CC(=O)O)C(=N)N` was run?
A: 137 % of control

Q: How did the survivor count (dose: 60.0 mg/kg/injection, schedule: Q#A X014 (ip), vehicle: methylcellulose (MC)) turn out when `CN(C)c1ccc(C(C#N)C(C#N)c2ccccc2)cc1` (configuration not stated) was run?
A: 1 of 6

Q: How did the survivor count (dose: 100.0 mg/kg/injection, schedule: Q01DX007 (ip), vehicle: carboxymethylcellulose (CMC)) turn out when `NNC(=O)c1nsnc1N` was run?
A: 0 of 6

Q: Which results are given for `CC1(C)O[C@@H]2C[C@H]3[C@@H]4CCC5=CC(=O)CC[C@]5(C)[C@@]4(F)[C@@H](O)C[C@]3(C)[C@]2(C(=O)CO)O1`?
A: survivor count (dose: 3.3 mg/kg/injection, schedule: Q#A X014 (sc), vehicle: steroid suspending solution): 5 of 8; survivor count (dose: 5.0 mg/kg/injection, schedule: Q#A X014 (sc), vehicle: steroid suspending solution): 1 of 8; survivor count (dose: 7.5 mg/kg/injection, schedule: Q#A X014 (sc), vehicle: steroid suspending solution): 1 of 8; survivor count (dose: 18.0 mg/kg/injection, schedule: Q01DX007 (sc), vehicle: steroid suspending solution): 4 of 7; survivor count (dose: 200.0 mg/kg/injection, schedule: Q01DX007 (sc), vehicle: steroid suspending solution): 3 of 8; survivor count (dose: 300.0 mg/kg/injection, schedule: Q01DX007 (sc), vehicle: steroid suspending solution): 2 of 8

Q: What does the source list for `O=C1c2cc(Cl)ccc2-c2c(Cl)cc(Cl)cc21`?
A: survivor count (dose: 75.0 mg/kg/injection, schedule: Q01DX007 (ip), vehicle: methylcellulose (MC)): 2 of 6; survivor count (dose: 150.0 mg/kg/injection, schedule: Q01DX007 (ip), vehicle: methylcellulose (MC)): 3 of 6; survivor count [5]: 3 of 6; survivor count [6]: 3 of 6

Q: With `CCCCNP(=O)(N1CC1)N1CC1` as the molecule, how does the survivor count (dose: 0.1 mg/kg/injection, schedule: Q#A X014 (ip), vehicle: saline) read?
A: 2 of 6

Q: Which results are given for `Cc1ccccc1N(C=O)c1ccccc1C`?
A: T/C (dose: 50.0 mg/kg/injection, schedule: Q01DX007 (ip), vehicle: methylcellulose (MC)): 147 % of control; T/C (dose: 250.0 mg/kg/injection, schedule: Q01DX007 (ip), vehicle: methylcellulose (MC)): 126 and 136 % of control [5 of 6 alive]; survivor count (dose: 500.0 mg/kg/injection, schedule: Q01DX007 (ip), vehicle: methylcellulose (MC)): 2 of 6

Q: `SCc1ccccn1` was tested. Which survivor count (dose: 250.0 mg/kg/injection, schedule: Q01DX007 (ip), vehicle: other) did it give?
A: 3 of 6

Q: What about the survivor count [5] of the same molecule?
A: 0 of 6

Q: For `C[C@@H](N)[C@@H](O)c1ccccc1`, which survivor count [2] is on record?
A: 2 of 6

Q: And the survivor count [3]?
A: 0 of 6

Q: And the survivor count (dose: 100.0 mg/kg/injection, schedule: Q01DX007 (ip), vehicle: saline)?
A: 0 of 6

Q: How did the survivor count [7] turn out when `CN(C)[C@@H]1C(=O)C(C(=O)NCNC2(C(=O)O)CCCC2)=C(O)[C@@]2(O)C(=O)C3=C(O)c4c(O)cccc4[C@@](C)(O)[C@H]3C[C@@H]12` was run?
A: 2 of 6

Q: With `CNNCc1ccc(C(=O)NC(N)=O)cc1` as the molecule, how does the survivor count [8] read?
A: 2 of 6

Q: And the survivor count [7]?
A: 3 of 6

Q: `CN(CC#N)/N=N/c1nc[nH]c1C(N)=O` was tested. Which survivor count [4] did it give?
A: 3 of 6

Q: What does the source list for `O=C(Nc1ccc(C2=NCCCN2)cc1)c1ccc(NC(=O)c2ccc(C3=NCCCN3)cc2)cc1`?
A: survivor count (dose: 4.0 mg/kg/injection, schedule: Q01DX007 (ip), vehicle: carboxymethylcellulose (CMC)): 3 of 6; survivor count (dose: 32.0 mg/kg/injection, schedule: Q01DX007 (ip), vehicle: carboxymethylcellulose (CMC)): 0 of 6; survivor count (dose: 62.5 mg/kg/injection, schedule: Q01DX007 (ip), vehicle: carboxymethylcellulose (CMC)): 0 of 6; survivor count [9]: 0 of 6; survivor count (dose: 250.0 mg/kg/injection, schedule: Q01DX007 (ip), vehicle: carboxymethylcellulose (CMC)): 0 of 6; survivor count [8]: 0 of 6

Q: With `Nc1nc(=S)c2ncn(C3CCCO3)c2[nH]1` (configuration not stated) as the molecule, how does the survivor count (dose: 180.0 mg/kg/injection, schedule: Q01DX007 (ip), vehicle: carboxymethylcellulose (CMC)) read?
A: 0 of 6

Q: With `CC(=O)OCC1=CC2OC(=O)C3=COC(OC4OC(CO)C(O)C(O)C4O)C1C32` (configuration not stated) as the molecule, how does the T/C (dose: 330.0 mg/kg/injection, schedule: Q01DX007 (ip), vehicle: carboxymethylcellulose (CMC)) read?
A: 138 % of control

Q: How did the survivor count [10] turn out when `Clc1ccc2c(Cl)ncnc2c1` was run?
A: 1 of 6 and 2 of 6

Q: For `CC(=O)c1cccc(NC2C(N)C(NC(=O)N(C)C)(C(C)O)C(C)(O)C2(O)COC(=O)c2c(C)cccc2O)c1` (configuration not stated), which survivor count (dose: 4.0 mg/kg/injection, schedule: Q01DX007 (ip), vehicle: saline) is on record?
A: 3 of 8

Q: What does the source list for `CCOC(N)=O`?
A: T/C (dose: 150.0 mg/kg/injection, schedule: Q#A X014 (ip), vehicle: carboxymethylcellulose (CMC)): 127 % of control; survivor count (dose: 790.0 mg/kg/injection, schedule: Q01DX007 (ip), vehicle: carboxymethylcellulose (CMC)): 4 of 10

Q: For `C=CC1CN2CCC1CC2C(O)c1ccnc2ccc(OC)cc12` (configuration not stated), which survivor count (dose: 450.0 mg/kg/injection, schedule: Q01DX007 (ip), vehicle: carboxymethylcellulose (CMC)) is on record?
A: 1 of 10

Q: Which results are given for `COc1ccc(C[C@H](N)C(=O)NC2C(CO)OC(n3cnc4c(N(C)C)ncnc43)C2O)cc1` (some centres not stated)?
A: T/C (dose: 25.0 mg/kg/injection, schedule: Q#A X014 (ip), vehicle: carboxymethylcellulose (CMC)): 128 % of control [5 of 6 alive]; survivor count (dose: 50.0 mg/kg/injection, schedule: Q#A X014 (ip), vehicle: carboxymethylcellulose (CMC)): 3 of 6

Q: `N#Cc1cn(C2OC(CO)C(O)C2O)c2ncnc(N)c12` (configuration not stated) was tested. Which survivor count (dose: 0.1 mg/kg/injection, schedule: Q#A X014 (ip), vehicle: carboxymethylcellulose (CMC)) did it give?
A: 4 of 7

Q: With `CCC(CC)C(O)CCCN(C)C` (configuration not stated) as the molecule, how does the survivor count (dose: 800.0 mg/kg/injection, schedule: Q01DX007 (ip), vehicle: saline) read?
A: 0 of 7

Q: With `NC(Cc1cc(I)c(Oc2ccc(O)c(I)c2)c(I)c1)C(=O)O` (configuration not stated) as the molecule, how does the T/C (dose: 100.0 micrograms/kg/injection, schedule: Q01DX007 (sc), vehicle: steroid suspending solution) read?
A: 130 % of control [4 of 6 alive]

Q: How did the survivor count [10] turn out when `OCC1OC(n2cnc3c(=S)nc[nH]c32)C(O)C1O` (configuration not stated) was run?
A: 3 of 6

Q: Which survivor count [9] does the source give for `O=C(Nc1ccc(Sc2ccc(N=Nc3c(O)c(S(=O)(=O)O)cc4cc(S(=O)(=O)O)ccc34)cc2)cc1)c1ccc(N=Nc2ccc3c(S(=O)(=O)O)cccc3c2O)cc1` here?
A: 1 of 6

Q: `COc1cccc2c1-c1ccccc1C2` was tested. Which T/C [9] did it give?
A: 136 % of control

Q: Which survivor count (dose: 222.0 mg/kg/injection, schedule: Q01DX007 (ip), vehicle: saline) does the source give for `Clc1ccc2c(c1)Cc1cc(N=Cc3ccccc3Cl)ccc1-2` here?
A: 2 of 6

Q: What about the survivor count (dose: 333.0 mg/kg/injection, schedule: Q01DX007 (ip), vehicle: saline) of the same molecule?
A: 0 of 6

Q: And the survivor count [7]?
A: 0 of 6

Q: And the survivor count (dose: 750.0 mg/kg/injection, schedule: Q01DX007 (ip), vehicle: saline)?
A: 0 of 6

Q: What about the survivor count (dose: 1119.0 mg/kg/injection, schedule: Q01DX007 (ip), vehicle: carboxymethylcellulose (CMC)) of the same molecule?
A: 2 of 6

Q: And the survivor count (dose: 1679.0 mg/kg/injection, schedule: Q01DX007 (ip), vehicle: carboxymethylcellulose (CMC))?
A: 0 of 6

Q: Which results are given for `CCCCCCCCCCCCO[P+](=O)OCCCCCCCCCCCC`?
A: survivor count (dose: 166.5 mg/kg/injection, schedule: Q#A X014 (ip), vehicle: carboxymethylcellulose (CMC)): 3 of 6; survivor count [6]: 3 of 6

Q: Which T/C (dose: 62.5 mg/kg/injection, schedule: Q01DX007 (sc), vehicle: steroid suspending solution) does the source give for `CC12CCC3C(CCC4CC=CCC43C)C1CCC2=O` (configuration not stated) here?
A: 129 % of control
